At least one structure is not confirmed: it was looked up by name or label, or the drawing left a doubt.
How the values were obtained:
hMSCs [1] = test: Calculated rates of ATP-production from substrate oxidation and glycolysis; assay type: cell-based, human; details: 3-HB in the culture medium of normoxic cells; passages 2 to 5
Procedure: Cells were incubated for 90 minutes in the presence of a single radiolabelled substrate (with addition of unlabelled substrates where indicated) in DMEM (containing no pyruvate, glucose or glutamine) in a total volume of 0.5 mls. […] Evolved ^14CO2 was trapped and measured by the method of Collins et al. (1998), except that, after addition of perchloric acid to the wells, plates were gently agitated for 60 minutes to release dissolved ^14CO2. Filter papers containing trapped ^14CO2 were counted in Ecoscint using a Tri-Carb 2800TR Liquid Scintillation Analyser. […] Rates of ATP-production from individual substrates were calculated on the basis of mol/mol production as follows: glucose: 31; glutamine: 20; pyruvate: 12.5; acetoacetate: 20. […] Rates of ATP-production from the labelled substrate were calculated for each condition and the results summed.
ATP-yields were calculated from the following values, as follows: from glycolysis of glucose, it is assumed that 2 moles ATP will be produced per mole glucose glycolysed. […]

hMSCs [2] = test: Substrate oxidation in 24-well plates (14CO2 production from 14C-labelled substrates); assay type: cell-based, human
Procedure: Cryopreserved cells were thawed, washed with growth medium and seeded at a density of 1 X 10^6 cells per 225cm2 with Dulbecco's Modified Eagle's medium (DMEM) containing 2mM ultra-glutamine, 1g/l glucose, 50µg/ml gentamycin and 10% FBS. Where 3-hydroxybutyrate (3-HB) was included in the growth medium, the concentration was 5mM throughout. Cells were passaged at about 80% confluence. Cells for measurements of glycolysis or oxidation were seeded into 24-well plates at a density of 1 x 10^4 cells per well and used at about 90% confluence. Cells were maintained in either normoxic culture with 20% O2 tension or hypoxic culture with 5% O2 tension in an oxygen-tension controlled incubator. […]
Cells were incubated for 90 minutes in the presence of a single radiolabelled substrate (with addition of unlabelled substrates where indicated) in DMEM (containing no pyruvate, glucose or glutamine) in a total volume of 0.5 mls. […] Evolved ^14CO2 was trapped and measured by the method of Collins et al. (1998), except that, after addition of perchloric acid to the wells, plates were gently agitated for 60 minutes to release dissolved ^14CO2. Filter papers containing trapped ^14CO2 were counted in Ecoscint using a Tri-Carb 2800TR Liquid Scintillation Analyser. […] Rates of ATP-production from the labelled substrate were calculated for each condition and the results summed.

In the case of `CC(O)CC(=O)O` (stereo not drawn) [3-HB, 3-hydroxybutyrate], the “effect on passage-related increase in ATP-generation from glucose” value (hMSCs [1]) is reported as “reduces the passage-related increase in ATP-generation”.

For `CC(=O)C(=O)O` [pyruvate], the “effect of added substrate on rates of acetoacetate oxidation” value (hMSCs [2]; 10mM acetoacetate plus unlabelled 2mM pyruvate, passage 2, normoxic-cultured cells) was “does not result in a significant difference” and the “increase in substrate-oxidation rate between passage 2 and passage 5” value (hMSCs [2]; normoxic-cultured cells (20% O2)) was “not significantly different”.

From EP3358006A1, “METHOD AND MEDIUM FOR CULTIVATING PRIMARY CELLS IN VITRO” (Mares Ltd., priority 2017, dated 2018)
